# Data published in PubChem BioAssay AID2718 (Broad Institute, 2010).
# Amino acid sequences for entries named in this document (tags omitted).
# UniProt O15379, whole entry, looked up: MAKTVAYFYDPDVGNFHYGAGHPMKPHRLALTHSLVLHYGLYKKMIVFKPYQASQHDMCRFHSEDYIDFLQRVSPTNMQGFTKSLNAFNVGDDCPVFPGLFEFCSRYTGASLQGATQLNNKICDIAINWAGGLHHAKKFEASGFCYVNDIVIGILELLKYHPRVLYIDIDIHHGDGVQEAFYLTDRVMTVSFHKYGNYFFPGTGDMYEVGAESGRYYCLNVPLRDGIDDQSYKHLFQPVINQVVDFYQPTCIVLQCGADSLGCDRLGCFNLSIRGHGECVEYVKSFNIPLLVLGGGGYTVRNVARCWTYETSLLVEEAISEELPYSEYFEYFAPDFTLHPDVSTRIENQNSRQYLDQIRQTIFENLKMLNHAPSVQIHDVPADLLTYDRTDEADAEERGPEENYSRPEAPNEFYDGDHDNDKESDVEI
# Screen size: about 320,000 compounds; about 480 (0.15%) were called active. This list was built around the results that the source calls inconclusive (neither active nor inactive); the mix of calls is not that of the screen. No stated cut-off is given here; in the data, active means inhibition above about 26% (passing the limit was not always enough); inconclusive means no clear call, values can overlap the other calls.
# Target: Histone deacetylase 3 (Homo sapiens) (UniProt O15379)
# Experiment: HDAC3 deacetylase inhibitors, primary screen, biochemical, fluorescence, cell-free homogeneous (AID 2718)
# Details: recombinant HDAC3, fluorogenic peptide/trypsin coupled, at 8.3 µM, active compounds read high
row,SMILES,inhibition
1,CC(Nc1cccc2ccccc12)C(=O)N/N=C/c1ccc([N+](=O)[O-])cc1 (stereo not drawn),inconclusive: 19.1%
2,Cc1cccc(NC(=S)N/N=C/c2ccc(Cl)c([N+](=O)[O-])c2)c1,inconclusive: 25.2%
3,Clc1ccc2noc(-c3ccccc3)c2c1,inconclusive: 23.7%
4,CN(C(=O)COC(=O)c1cc(NS(=O)(=O)c2cc([N+](=O)[O-])ccc2Cl)ccc1O)C1CCCCC1,inconclusive: 15.7%
5,CC(C)c1nnc(NC(=O)CCC(=O)N2CCN(C3CCCCC3)CC2)s1,inconclusive: 23.3%
6,CCN(CC)C(=O)c1sc(NC(=O)Cc2ccccc2)c(C#N)c1C,inconclusive: 19.5%
7,COc1ccc(CN2C[C@H](C)[C@@H](CC(=O)NCc3ccccc3)C2=O)cc1,inconclusive: 19.6%
8,CC(C(=O)NCC1CCCO1)N(C(=O)c1snc(C(N)=O)c1N)c1cccc(F)c1 (stereo not drawn),inconclusive: 21%
9,CCC(=O)n1nc(-c2cccnc2)nc1NCc1cccs1,inconclusive: 25%
10,CN(c1ccccc1)c1nc(N)c([N+](=O)[O-])c(N2CCCCC2)n1,inconclusive: 11.2%
11,CCOC(=O)/C(=C\C=C1/Sc2ccccc2N1CC)C(C)=O,inconclusive: 28.8%
12,COc1cccc(/C=N/NC(=O)CNC(=O)COc2ccccc2)c1O,inconclusive: 22.6%
13,CCc1nnc(NC(=O)c2ccc3c(=O)n4c(nc3c2)CCCCC4)s1,inconclusive: 15%
14,COc1ccc(CCCC(=O)N/N=C\c2cccs2)cc1,inactive: 10.5%
15,CCS(=O)(=O)N1CCN(c2c(Cl)cccc2[N+](=O)[O-])CC1,inconclusive: 19.4%
16,COc1ccccc1N1C(=O)c2ccc(C(=O)Nc3ccccc3O)cc2C1=O,inconclusive: 26.4%
17,COc1ccc(-c2cc(C(F)(F)F)n3nc(C(=O)NCc4ccco4)cc3n2)cc1,inconclusive: 14.5%
18,CN(C)c1ccc(/C=C2\SC(=O)N(CCc3nnc(N)s3)C2=O)cc1,inactive: 1.41%
19,CC(=O)c1ccc(OC(=O)c2cccs2)cc1,inconclusive: 59.5%
20,NC(=O)CC(NC(=O)Cc1ccc(Br)cc1)c1ccc(NC2CC3CCC2C3)c([N+](=O)[O-])c1 (stereo not drawn),inconclusive: 21.7%
21,N#C/C(=C/c1ccc(C(=O)O)cc1)C(=O)NCc1ccccc1,inactive: 2.43%
22,O=S(=O)(c1ccc(Cl)cc1)N1CCN(C(=S)Nc2ccccc2F)CC1,inactive: -3.72%

# Retrieved one by one from above, two records:
row,SMILES,inhibition
16,COc1ccccc1N1C(=O)c2ccc(C(=O)Nc3ccccc3O)cc2C1=O,inconclusive: 26.4%
14,COc1ccc(CCCC(=O)N/N=C\c2cccs2)cc1,inactive: 10.5%

# Later entries

row,SMILES,inhibition
1,COC(=O)c1cc2c(-c3ccccc3)c(C)c3ccccn3c-2c1C(=O)OC,inactive: -5.74%
2,Cc1ccc(-c2nc(S(=O)(=O)c3ccc(C)cc3)c(N(C)C)o2)cc1,inactive: -0.0495%
3,CCCCNC(=S)N(CCO)Cc1cc2cc3c(cc2[nH]c1=O)OCCO3,inconclusive: 19.1%
4,Cc1ccc(NC(=O)C(=O)NCC2CCCN2S(=O)(=O)c2cccs2)cc1 (stereo not drawn),inconclusive: 20.2%
5,CC1(C)CC(=O)C(C=NCCN2CCN(C(=S)Nc3ccccc3)CC2)=C(O)C1,inconclusive: 14%
6,CCOC(=O)c1c2ccc(OCC(=O)N/N=C/c3ccc(C)cc3)cc2n2ccccc12,inactive: 3.25%
7,COc1ccc(NC(C)=O)cc1S(=O)(=O)Nc1ccc2c(c1)OCCO2,inconclusive: 12.9%
8,COc1ccc(/C=N/NC(=O)c2cccnc2)cc1CN1CCc2ccccc2C1,inconclusive: 9.72%
9,COc1ccc(-c2cn(Cc3ccc(C(=O)c4ccccc4)cc3)nn2)cc1,inconclusive: 18.9%
10,CCc1ccccc1NC(=S)N(Cc1ccc(OC)cc1)CC1CCC(C(=O)O)CC1 (stereo not drawn),inactive: -1.76%
11,CCOC(=O)CN1Cc2cccc(C(=O)O)c2C1=O,inconclusive: 11.5%
12,CS(=O)(=O)Nc1ccccc1C(=O)NC1CC2CCC1C2 (stereo not drawn),inactive: -15%
13,O=c1[nH]c(=O)n([C@H]2C[C@H](O)[C@@H](CO)O2)cc1F,inactive: -0.362%
14,S=c1[nH]nc(Nc2cccc3ccccc23)s1,inconclusive: 10.8%
15,CCC(C)Sc1ccc([C@H]2N[C@@](Cc3ccccc3)(C(=O)OC)[C@H]3C(=O)N(CC)C(=O)[C@@H]23)cc1 (stereo partly drawn),inconclusive: 22.7%
16,COc1cc2c(cc1OC)C(C(=O)Nc1cc(OC)c(OC)c(OC)c1)C(c1cccnc1)N(C)C2=O (stereo not drawn),inconclusive: 18.2%
17,O=C(CN1CC(=O)Oc2ccccc21)NCc1ccco1,inactive: 4.79%
18,COc1ccc(/C=N/n2c(=S)n(C)c3ccccc32)cc1OC,inconclusive: 20.9%
19,Cn1c(=NCC(O)COc2ccccc2)sc2ccccc21 (stereo not drawn),inconclusive: 14.8%
20,CSc1ccc(S(=O)(=O)NCC(=O)OCC(=O)NCc2ccco2)cc1[N+](=O)[O-],inconclusive: 35.1%
21,Cc1cccc(NC(=O)CSCC(=O)Nc2cccc3ncccc23)c1,inactive: -3.71%
